# This is one part of the list.
# What was measured:
# Test in all cases: glycan array binding signal (z-score within array); higher = stronger binding
# Conditions in all cases: glycan notation: IUPAC condensed, linker removed
# [1] = molecular target: Neu5Ac(a2-6)Gal(b1-4)GlcNAc(b1-3)Gal(b1-4)GlcNAc(b1-3)Gal(b1-4)GlcNAc(b1-2)Man(a1-3)[Neu5Ac(a2-6)Gal(b1-4)GlcNAc(b1-3)Gal(b1-4)GlcNAc(b1-3)Gal(b1-4)GlcNAc(b1-2)Man(a1-6)]GalNAc
# Summary of the method: (§1)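 From the Consortium for Functional Glycomics database, 3228 arrays were curated, keeping only those whose protein sequence was available. Binding is given as a within-array Z-score averaged across arrays sharing a protein sequence and across linkers. Negative Z-scores can be read as non-binding.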
# [2] = molecular target: Neu5Ac(a2-6)Gal(b1-4)GlcNAc(b1-3)Gal(b1-4)GlcNAc(b1-3)GalNAc
# Summary of the method: as §1
# [3] = molecular target: Neu5Ac(a2-6)Gal(b1-4)GlcNAc(b1-3)Gal(b1-4)GlcNAc(b1-3)[Neu5Ac(a2-6)Gal(b1-4)GlcNAc(b1-3)Gal(b1-4)GlcNAc(b1-6)]GalNAc
# Summary of the method: as §1
# [4] = molecular target: Neu5Ac(a2-6)Gal(b1-4)GlcNAc(b1-3)Gal(b1-4)GlcNAc(b1-6)[Gal(b1-3)]GalNAc
# Summary of the method: as §1
# [5] = molecular target: Neu5Ac(a2-6)Gal(b1-4)GlcNAc(b1-3)Gal(b1-4)[Fuc(a1-3)]GlcNAc(b1-3)Gal(b1-4)[Fuc(a1-3)]GlcNAc
# Summary of the method: as §1
# [6] = molecular target: Neu5Ac(a2-6)Gal(b1-4)GlcNAc(b1-3)GalNAc
# Summary of the method: as §1
# [7] = molecular target: Neu5Ac(a2-6)Gal(b1-4)GlcNAc(b1-3)[Neu5Ac(a2-6)Gal(b1-4)GlcNAc(b1-6)]GalNAc
# Summary of the method: as §1
# [8] = molecular target: Neu5Ac(a2-6)Gal(b1-4)GlcNAc(b1-6)GalNAc
# Summary of the method: as §1
# [9] = molecular target: Neu5Ac(a2-6)Gal(b1-4)GlcNAc(b1-6)[Gal(b1-3)GlcNAc(b1-3)]Gal(b1-4)Glc
# Summary of the method: as §1
# [10] = molecular target: Neu5Ac(a2-6)Gal(b1-4)GlcNAc(b1-6)[Gal(b1-3)]GalNAc
# Summary of the method: as §1
# [11] = molecular target: Neu5Ac(a2-6)Gal(b1-4)GlcNAc6S
# Summary of the method: as §1
# [12] = molecular target: Neu5Ac(a2-6)GalNAc
# Summary of the method: as §1
# [13] = molecular target: Neu5Ac(a2-6)GalNAc(b1-4)GlcNAc
# Summary of the method: as §1
# [14] = molecular target: Neu5Ac(a2-6)GalNAc(b1-4)GlcNAc6S
# Summary of the method: as §1
# [15] = molecular target: Neu5Ac(a2-6)GlcNAc(b1-4)GlcNAc
# Summary of the method: as §1
# [16] = molecular target: Neu5Ac(a2-6)GlcNAc(b1-4)GlcNAc(b1-4)GlcNAc
# Summary of the method: as §1
# [17] = molecular target: Neu5Ac(a2-8)Neu5Ac
# Summary of the method: as §1
# [18] = molecular target: Neu5Ac(a2-8)Neu5Ac(a2-3)Gal(b1-3)GalNAc(b1-4)[Neu5Ac(a2-3)]Gal(b1-4)Glc
# Summary of the method: as §1
# [19] = molecular target: Neu5Ac(a2-8)Neu5Ac(a2-3)Gal(b1-3)GalNAc(b1-4)[Neu5Ac(a2-8)Neu5Ac(a2-3)]Gal(b1-4)Glc
# Summary of the method: as §1
# [20] = molecular target: Neu5Ac(a2-8)Neu5Ac(a2-3)Gal(b1-4)Glc
# Summary of the method: as §1
# [21] = molecular target: Neu5Ac(a2-8)Neu5Ac(a2-3)Gal(b1-4)GlcNAc
# Summary of the method: as §1
# [22] = molecular target: Neu5Ac(a2-8)Neu5Ac(a2-3)[Gal(b1-3)GalNAc(b1-4)]Gal(b1-4)Glc
# Summary of the method: as §1
# [23] = molecular target: Neu5Ac(a2-8)Neu5Ac(a2-3)[GalNAc(b1-4)]Gal(b1-4)Glc
# Summary of the method: as §1
# [24] = molecular target: Neu5Ac(a2-8)Neu5Ac(a2-8)Neu5Ac
# Summary of the method: as §1
# [25] = molecular target: Neu5Ac(a2-8)Neu5Ac(a2-8)Neu5Ac(a2-3)Gal(b1-4)Glc
# Summary of the method: as §1
# [26] = molecular target: Neu5Ac(a2-8)Neu5Ac(a2-8)Neu5Ac(a2-3)[Gal(b1-3)GalNAc(b1-4)]Gal(b1-4)Glc
# Summary of the method: as §1
# [27] = molecular target: Neu5Ac(a2-8)Neu5Ac(a2-8)Neu5Ac(a2-3)[GalNAc(b1-4)]Gal(b1-4)Glc
# Summary of the method: as §1
# [28] = molecular target: Neu5Ac(a2-8)Neu5Ac(a2-8)Neu5Ac(a2-8)Neu5Ac(a2-3)[GalNAc(b1-4)]Gal(b1-4)Glc
# Summary of the method: as §1
# [29] = molecular target: Neu5Ac(a2-8)Neu5Gc(a2-3)Gal(b1-4)GlcNAc
# Summary of the method: as §1
# [30] = molecular target: Neu5Ac(b2-6)Gal(b1-4)GlcNAc
# Summary of the method: as §1
# [31] = molecular target: Neu5Ac(b2-6)GalNAc
# Summary of the method: as §1
# [32] = molecular target: Neu5Ac9Ac(a2-3)Gal(b1-3)GlcNAc
# Summary of the method: as §1
# [33] = molecular target: Neu5Ac9Ac(a2-3)Gal(b1-4)GlcNAc
# Summary of the method: as §1
# [34] = molecular target: Neu5Ac9Ac(a2-6)Gal(b1-4)GlcNAc
# Summary of the method: as §1
# [35] = molecular target: Neu5Gc(a2-3)Gal(b1-3)GlcNAc
# Summary of the method: as §1
# [36] = molecular target: Neu5Gc(a2-3)Gal(b1-3)[Fuc(a1-4)]GlcNAc
# Summary of the method: as §1
# [37] = molecular target: Neu5Gc(a2-3)Gal(b1-4)Glc
# Summary of the method: as §1
# [38] = molecular target: Neu5Gc(a2-3)Gal(b1-4)GlcNAc
# Summary of the method: as §1
# [39] = molecular target: Neu5Gc(a2-3)Gal(b1-4)GlcNAc(b1-3)Gal(b1-4)GlcNAc(b1-2)Man(a1-3)[Neu5Gc(a2-3)Gal(b1-4)GlcNAc(b1-3)Gal(b1-4)GlcNAc(b1-2)Man(a1-6)]Man(b1-4)GlcNAc(b1-4)GlcNAc
# Summary of the method: as §1
# [40] = molecular target: Neu5Gc(a2-3)Gal(b1-4)[Fuc(a1-3)]GlcNAc
# Summary of the method: as §1
# [41] = molecular target: Neu5Gc(a2-6)Gal(b1-4)GlcNAc
# Summary of the method: as §1
# [42] = molecular target: Neu5Gc(a2-6)GalNAc
# Summary of the method: as §1
# [43] = molecular target: Neu5Gc(a2-8)Neu5Ac(a2-3)Gal(b1-4)GlcNAc
# Summary of the method: as §1
# [44] = molecular target: Neu5Gc(a2-8)Neu5Gc(a2-3)Gal(b1-4)GlcNAc
# Summary of the method: as §1
# [45] = molecular target: Neu5Gc(a2-8)Neu5Gc(a2-3)Gal(b1-4)GlcNAc(b1-3)Gal(b1-4)GlcNAc
# Summary of the method: as §1
binder,measurement,setting,value
EULS2 M3 (Oryza sativa) (protein) MVYCRANPNYAMTARNGAVVLAPANPKDEYQHWIKDMRWSTSIKDEEGYPAFALVNKATGQAIKHSLGQSHPVRLVPYNPEVMDESVLWTESRDVGNGFRCIRMVNNIYLNFDAFHGDKYHGGVRDGTDIVLWKLCEGDSLRWKIQPYYILEQKLISEEDLNSAVDHHHHHH,glycan array binding signal (z-score),[1],0.572
same,glycan array binding signal (z-score),[2],-0.002
same,glycan array binding signal (z-score),[3],0.406
same,glycan array binding signal (z-score),[4],-0.547
same,glycan array binding signal (z-score),[5],-0.324
same,glycan array binding signal (z-score),[6],-0.09
same,glycan array binding signal (z-score),[7],-0.424
same,glycan array binding signal (z-score),[8],0.157
same,glycan array binding signal (z-score),[9],-0.268
same,glycan array binding signal (z-score),[10],0.023
same,glycan array binding signal (z-score),[11],-0.561
same,glycan array binding signal (z-score),[12],-0.8
same,glycan array binding signal (z-score),[13],-0.731
same,glycan array binding signal (z-score),[14],0.59
same,glycan array binding signal (z-score),[15],0.433
same,glycan array binding signal (z-score),[16],0.106
same,glycan array binding signal (z-score),[17],0.636
same,glycan array binding signal (z-score),[18],1.61
same,glycan array binding signal (z-score),[19],-0.271
same,glycan array binding signal (z-score),[20],-0.003
same,glycan array binding signal (z-score),[21],-0.37
same,glycan array binding signal (z-score),[22],-0.341
same,glycan array binding signal (z-score),[23],-0.193
same,glycan array binding signal (z-score),[24],0.795
same,glycan array binding signal (z-score),[25],-0.791
same,glycan array binding signal (z-score),[26],-0.444
same,glycan array binding signal (z-score),[27],-0.028
same,glycan array binding signal (z-score),[28],-0.424
same,glycan array binding signal (z-score),[29],-0.084
same,glycan array binding signal (z-score),[30],-0.056
same,glycan array binding signal (z-score),[31],-0.191
same,glycan array binding signal (z-score),[32],0.181
same,glycan array binding signal (z-score),[33],-0.466
same,glycan array binding signal (z-score),[34],-0.602
same,glycan array binding signal (z-score),[35],-0.108
same,glycan array binding signal (z-score),[36],-0.291
same,glycan array binding signal (z-score),[37],-0.135
same,glycan array binding signal (z-score),[38],0.145
same,glycan array binding signal (z-score),[39],-0.039
same,glycan array binding signal (z-score),[40],0.074
same,glycan array binding signal (z-score),[41],-0.469
same,glycan array binding signal (z-score),[42],-0.738
same,glycan array binding signal (z-score),[43],-0.653
same,glycan array binding signal (z-score),[44],-0.212
same,glycan array binding signal (z-score),[45],0.089

# Pulled one by one from above, two records:
binder,measurement,setting,value
EULS2 M3 (Oryza sativa) (protein) MVYCRANPNYAMTARNGAVVLAPANPKDEYQHWIKDMRWSTSIKDEEGYPAFALVNKATGQAIKHSLGQSHPVRLVPYNPEVMDESVLWTESRDVGNGFRCIRMVNNIYLNFDAFHGDKYHGGVRDGTDIVLWKLCEGDSLRWKIQPYYILEQKLISEEDLNSAVDHHHHHH,glycan array binding signal (z-score),[15],0.433
same,glycan array binding signal (z-score),[2],-0.002

# From the supplement of paper PMC8728848
